Test results: patent US12029742B2, “Compositions and methods for the repair of myelin” (Duke University, priority 2014, dated 2024)

Assay: Mass spectrometry detection of oxysterols in human breast milk
Conditions: freshly pumped human breast milk, frozen at −80° C. or stored at 4° C. for six days; FIG. 7

| Structure (SMILES) | level detected in human breast milk by mass spectrometry |
| --- | --- |
| CC(C)CCC[C@](C)(O)[C@H]1CC[C@H]2[C@@H]3CC=C4C[C@@H](O)CC[C@]4(C)[C@H]3CC[C@@]21C [20α-hydroxycholesterol] | not detected |
| CC(C)C(O)CC[C@@H](C)[C@H]1CC[C@H]2[C@@H]3CC=C4C[C@@H](O)CC[C@]4(C)[C@H]3CC[C@]12C (stereo partly shown) [24-hydroxycholesterol] | abundant levels |
| C[C@H](CCCC(C)(C)O)[C@H]1CC[C@H]2[C@@H]3CC=C4C[C@@H](O)CC[C@]4(C)[C@H]3CC[C@]12C [25-hydroxycholesterol] | abundant levels |
| C[C@@H](CO)CCC[C@@H](C)[C@H]1CC[C@H]2[C@@H]3CC=C4C[C@@H](O)CC[C@]4(C)[C@H]3CC[C@]12C [27-hydroxycholesterol] | abundant levels |
